A short description of the assay: qHTS Assay for Modulators of Lamin A Splicing. The settings on record: HeLa LMNA splicing GFP/RFP minigene ratio, 48 h. Summed up:
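S3 HeLa cells stably expressing lamin A-EGFP splicing minigene plus DsRed2, 600 cells/well, 48 h compound exposure at 37C. Laser-scanning cytometry; analysed as GFP (500-530 nm)/RFP (575-640 nm) total intensity ratio; 0.5% DMSO vehicle.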

[1] abbreviates: measured here: RFP viability control channel.
Setting [2] is: measured here: GFP splicing reporter channel.

The values below come from PubChem BioAssay AID1487 (National Center for Advancing Translational Sciences (NCATS), 2009).

This is one part of the list. Shown are side measurements of this screen, not its main read-out; they come without a call. Most of these compounds were active or inconclusive in the main read-out, so they are no random draw. Potencies come from curve fits of mixed quality, noted in brackets.

Broadly, the AC50 is the concentration at which the activity in the assay is half-maximal.

With `CC(=O)C1=C(c2ccccc2)OC(N)=C(C#N)C1c1ccc(O)cc1` (stereo not given), the AC50 under setting [1] was 10 µM [rising, single point].

On to `CCNc1ncc2nc(-c3ccccc3)c(=O)n(Cc3cccc(OC)c3)c2n1`, for which the AC50 by setting is: under setting [2], 15.8 µM [falling, single point]; under setting [1], 20 µM [falling, single point].

In the case of `CN(Cc1ccccc1)S(=O)(=O)c1nnc(NC(=O)c2ccccc2)s1`, the AC50 under setting [1] was 22.4 µM [rising, single point].

`CCCOP(=O)(c1ccc(N(C)C)cc1)C(Nc1ccccc1)c1ccc(N(C)C)cc1` (stereo not given): the AC50 under setting [1] is 11.2 µM [rising, partial curve, poor fit].

Take `COc1ccc(C2C(C(=O)Nc3cc(C)on3)c3ccccc3C(=O)N2C)cc1OC` (stereo not given): the AC50 is, setting by setting: under setting [2], 0.562 µM [falling, full curve]; under setting [1], 0.794 µM [falling, full curve, poor fit].

For `Nc1nc(CSc2nc3ccccc3s2)nc(N2CCCCC2)n1`, the AC50 under setting [2] is 31.6 µM [rising, single point] and the AC50 under setting [1] is 35.5 µM [rising, single point].

As to `CCOc1ccccc1N1CCN(Cc2ccc(Br)s2)CC1`, the AC50 under setting [2] was 35.5 µM [rising, single point].

Turning to `CCOC(=O)C1=C(CSCc2ccccc2)NC(=O)NC1c1cc(C)ccc1C` (stereo not given), the AC50 under setting [1] is 12.6 µM [rising, single point].

For the compound `Cc1cc(C)cc(N(C(C)C(=O)NCc2ccc3c(c2)OCO3)S(C)(=O)=O)c1` (stereo not given), the AC50 was 2.82 µM [rising, partial curve, poor fit] under setting [2] and 35.5 µM [rising, single point] under setting [1].

In the case of `Cc1cc(C=O)c(C)n1-c1cccc(C(=O)O)c1`, the half-maximal activity concentration (AC50) under setting [2] is 35.5 µM [rising, single point].

With `O=C(O)c1cc([N+](=O)[O-])ccc1NCc1ccccc1`, under setting [2], the AC50 is 0.01 µM [falling, full curve, poor fit].

Turning to `COc1ccccc1CNC(=O)C1CCN(c2nc3ccccc3o2)CC1`, under setting [1], the AC50 is 35.5 µM [rising, single point].

In the case of `Cc1cc(/N=C/C=C2\N(C)c3ccccc3C2(C)C)n(CCC#N)n1`, the half-maximal activity concentration (AC50) reads like this: under setting [2], 12.6 µM [rising, partial curve]; under setting [1], 22.4 µM [rising, partial curve].

In the case of `Cc1ccc2nc(SCC(=O)Nc3cc([N+](=O)[O-])ccc3F)[nH]c2c1`, the AC50 under setting [2] was 14.1 µM [falling, partial curve] and the AC50 under setting [1] was 35.5 µM [falling, single point].

Turning to `O=c1c2ccccc2oc2nc(-c3ccco3)n(-c3ccccc3)c(=O)c12`, the AC50 under setting [1] is 0.316 µM [rising, full curve, poor fit].

As to `COc1ccccc1/C=N\Nc1cc(C)nc(-n2nc(C)cc2C)n1`, under setting [1], the AC50 is 35.5 µM [rising, single point].

With `COc1cccc(Cn2c(=O)cnc3cnc(Nc4ccccc4)nc32)c1`, the AC50 is, setting by setting: under setting [2], 14.1 µM [falling, partial curve]; under setting [1], 15.8 µM [falling, single point].

As to `Cc1cc(=O)n2[nH]c(C)c(-c3ccccc3)c2n1`, the AC50 runs as follows: under setting [2], 14.1 µM [rising, single point]; under setting [1], 14.1 µM [rising, single point].

On to `CC(C)OCCCNc1ncnc2c1[nH]c1ccccc12`, for which the AC50 is, setting by setting: under setting [2], 3.98 µM [rising, full curve]; under setting [1], 5.01 µM [rising, full curve].

In the case of `O=C(NCc1ccccc1)c1ccc(CSc2nc3cccnc3n2Cc2ccccc2F)cc1`, the AC50 reads like this: under setting [2], 35.5 µM [falling, single point]; under setting [1], 35.5 µM [falling, single point].

For the compound `Cn1c(=O)c2c(ncn2CC(=O)Nc2ccccc2Sc2ccccc2)n(C)c1=O`, the AC50 under setting [2] is 7.94 µM [rising, partial curve, poor fit].

With `Oc1c(C(Nc2cccc(C(F)(F)F)c2)c2ccncc2)ccc2cccnc12` (stereo not given), the concentration at half-maximal activity (AC50) under setting [1] was 3.16 µM [rising, single point].

With `COc1cccc(-c2ccc3ncnc(N(C)Cc4ccco4)c3c2)c1`, the AC50 under setting [1] was 10 µM [falling, partial curve, poor fit].

In the case of `O=C(c1ccc(=O)[nH]n1)N1CCN(S(=O)(=O)c2ccc3ccccc3c2)CC1`, the AC50 under setting [2] was 6.31 µM [rising, single point].

Turning to `CC(C)(C)NC(=O)COc1ccc(-c2ccccc2)cc1`, the concentration at half-maximal activity (AC50) under setting [1] is 35.5 µM [rising, single point].

Take `CCCc1ccc(-c2cc(NC(=O)CSc3nnc(N)s3)n(-c3ccccc3)n2)cc1`: the AC50 under setting [2] is 25.1 µM [rising, single point].

Regarding `COc1ccc(N=C2CC(C)(C)CC(=O)/C2=C(/O)c2ccccc2)cc1`, the AC50 under setting [2] is 2.82 µM [falling, full curve, poor fit].

As to `COCC(=O)n1cc(C(=O)OC)c2ccccc21`, the AC50 under setting [1] was 35.5 µM [falling, single point].

As for `COc1cccc(C(=O)N/N=C/c2ccc(Oc3ccc([N+](=O)[O-])cn3)c(OC)c2)c1`, the AC50 reads like this: under setting [2], 14.1 µM [rising, single point]; under setting [1], 22.4 µM [rising, single point].

Consider `COc1ccc(OC)c(C(=O)/C=C/c2ccccc2C(F)(F)F)c1`, for which the AC50 reads like this: under setting [2], 12.6 µM [falling, partial curve]; under setting [1], 17.8 µM [falling, partial curve].

Take `Cn1c(=O)cc(OCCCC(=O)N2CCN(Cc3ccc4c(c3)OCO4)CC2)c2ccccc21`: under setting [2], the AC50 was 12.6 µM [rising, single point].

On to `Clc1ccccc1-c1nccc(NCc2cccs2)n1`, for which the AC50 under setting [2] is 0.224 µM [falling, partial curve, poor fit] and the AC50 under setting [1] is 0.355 µM [falling, full curve, poor fit].

`CC1=NN(C(=O)c2ccccc2-n2cccc2)C(O)(C(F)(F)F)C1` (stereo not given): under setting [1], the AC50 is 20 µM [rising, single point].

`Cc1sc(NC(=O)/C=C/C(=O)O)c(C(N)=O)c1-c1ccc(C(C)(C)C)cc1`: the AC50 under setting [1] was 31.6 µM [rising, single point].

On to `CC(C)CNC(=O)c1cccc(NC(=O)c2ccc(Cl)c([N+](=O)[O-])c2)c1`, for which the AC50 runs as follows: under setting [2], 35.5 µM [rising, single point]; under setting [1], 35.5 µM [rising, single point].

`O=C(COC(=O)CCc1ccc(S(=O)(=O)N2CCOCC2)cc1)Nc1ccc(Cl)cn1`: under setting [2], the AC50 is 1.12 µM [rising, partial curve, poor fit].

In the case of `COC(=O)c1ccccc1NC(=O)CSc1nnc(COc2cccc(OC)c2)n1C`, the AC50 under setting [2] was 15.8 µM [rising, single point].

Turning to `COc1ccc(-c2cn3cccnc3n2)cc1NC(=O)c1cc(C)cc(C)c1`, the concentration at half-maximal activity (AC50) under setting [2] was 35.5 µM [falling, partial curve, poor fit].

With `CC(C)COc1ccc(CSCCNC(=S)Nc2ccccc2)cc1`, the AC50 was 17.8 µM [falling, single point] under setting [2] and 11.2 µM [falling, partial curve] under setting [1].

Consider `COc1cc(C(C[N+](=O)[O-])c2c(C)[nH]c3ccccc23)ccc1O` (stereo not given), for which the AC50 was 10 µM [rising, partial curve, poor fit] under setting [2] and 11.2 µM [rising, partial curve, poor fit] under setting [1].

With `COc1ccc(OC)c(C2=NOC(C(=O)Nc3cc(C)nn3-c3ccccc3)C2)c1` (stereo not given), the AC50 under setting [1] is 35.5 µM [rising, single point].

Consider `O=c1cc(O)c2sc3nc(C(F)(F)F)c4c(c3c2[nH]1)CCCCC4`, for which the AC50 is 0.562 µM [rising, single point] under setting [2] and 0.501 µM [rising, single point] under setting [1].

For the compound `COc1ccc(NS(=O)(=O)c2ccc(N3CCOCC3)c(NC(=O)c3ccc(F)cc3)c2)cc1`, the AC50 under setting [1] is 11.2 µM [rising, partial curve].

`COc1ccc(-c2csc(NC(=O)CSc3nnc(Nc4ccccc4C)s3)n2)cc1`: the half-maximal activity concentration (AC50) under setting [1] was 17.8 µM [falling, partial curve, poor fit].

`CCCC(=O)NC(=S)Nc1cccc(Cl)c1N1CCCC1`: under setting [2], the AC50 is 35.5 µM [rising, single point].

For the compound `COC(=O)c1cc(NC(=O)Cn2nc(-c3ccc(C)c(C)c3)ccc2=O)cc(C(=O)OC)c1`, the AC50 under setting [2] was 0.398 µM [falling, full curve].

For the compound `CC1CCCN(c2ccc(C(=O)Nc3ccc4c(c3)OCO4)cc2[N+](=O)[O-])C1` (stereo not given), the AC50 under setting [1] is 31.6 µM [rising, partial curve].

As to `COC(=O)Cn1c(CN2CCN(c3ccc(F)cc3)CC2)nc2c1c(=O)n(C)c(=O)n2C`, under setting [1], the AC50 is 17.8 µM [rising, single point].

As for `COc1ccc(S(=O)(=O)n2[nH]c(=O)c(CCO)c2C)c([N+](=O)[O-])c1`, the half-maximal activity concentration (AC50) by setting is: under setting [2], 0.0631 µM [rising, full curve]; under setting [1], 0.00316 µM [rising, full curve, poor fit].

As to `Cc1c(C(=O)OCc2nc3scc(-c4ccccc4)c3c(=O)[nH]2)cccc1[N+](=O)[O-]`, the AC50 runs as follows: under setting [2], 17.8 µM [rising, partial curve, poor fit]; under setting [1], 14.1 µM [rising, partial curve].

Take `Cc1ccc(-c2nc(Cn3c(=O)cc(-c4ccccc4)c4c(C)nn(C)c43)c(C)o2)cc1`: the AC50 is, setting by setting: under setting [2], 0.0562 µM [falling, full curve, poor fit]; under setting [1], 0.0224 µM [falling, full curve, poor fit].

In the case of `CCc1c(-c2ccccc2)nc2ccccc2c1C(=O)NCc1ccc(C)cc1`, under setting [1], the AC50 was 6.31 µM [rising, partial curve].

For `CC1COC2C(O1)N(S(C)(=O)=O)CCN2S(C)(=O)=O` (stereo not given), under setting [2], the half-maximal activity concentration (AC50) is 35.5 µM [rising, single point].

For the compound `N#Cc1c(NC(=O)CSc2ncn[nH]2)sc2c1CCCC2`, under setting [1], the AC50 is 10 µM [rising, partial curve].

As for `CCC(=O)N1CCc2cc(S(=O)(=O)Nc3ccc4c(c3)OCCO4)ccc21`, under setting [1], the AC50 is 8.91 µM [rising, partial curve].
